Laboratory results taken from PubChem BioAssay AID743255 (National Center for Advancing Translational Sciences (NCATS), 2014).
Among all 390,000 compounds or so, about 910 (0.23%) were called active. The shares of active, inactive and inconclusive entries below differ from those in the screen. Calls come from the whole dose curve; as a rule, active = well fitted inhibition curve with a large enough effect; inconclusive = small, poorly fitted or top-dose-only effect; inactive = no such curve, though single readings can be large or run the other way. Where the call is inconclusive, the potency comes from a doubtful curve fit.

The chains behind the UniProt entries cited, without tags or fusion partners. Where a name states a change or a piece, a line headed by the entry shows the natural chain unless it says otherwise.
UniProt O94782: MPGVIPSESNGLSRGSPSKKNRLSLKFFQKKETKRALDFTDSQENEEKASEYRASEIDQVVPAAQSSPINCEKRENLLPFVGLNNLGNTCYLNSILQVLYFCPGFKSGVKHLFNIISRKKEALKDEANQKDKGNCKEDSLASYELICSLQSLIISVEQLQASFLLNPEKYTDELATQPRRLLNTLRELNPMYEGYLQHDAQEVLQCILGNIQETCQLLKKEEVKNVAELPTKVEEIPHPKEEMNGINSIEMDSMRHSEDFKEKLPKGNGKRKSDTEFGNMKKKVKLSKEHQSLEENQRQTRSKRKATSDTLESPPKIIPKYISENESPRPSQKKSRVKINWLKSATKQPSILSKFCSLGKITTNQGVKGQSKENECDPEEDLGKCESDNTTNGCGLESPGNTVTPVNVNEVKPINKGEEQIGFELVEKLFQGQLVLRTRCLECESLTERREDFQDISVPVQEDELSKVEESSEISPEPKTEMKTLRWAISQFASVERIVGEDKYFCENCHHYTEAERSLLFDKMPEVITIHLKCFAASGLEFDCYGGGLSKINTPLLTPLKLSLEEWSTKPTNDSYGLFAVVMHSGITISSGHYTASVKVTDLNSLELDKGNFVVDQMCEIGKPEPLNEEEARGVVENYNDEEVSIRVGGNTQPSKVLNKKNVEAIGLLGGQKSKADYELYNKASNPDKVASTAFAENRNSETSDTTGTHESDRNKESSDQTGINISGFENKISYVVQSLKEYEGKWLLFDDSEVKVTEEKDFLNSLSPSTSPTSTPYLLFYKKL

target: Ubiquitin carboxyl-terminal hydrolase 1 (Homo sapiens) (UniProt O94782); experiment: Inhibitors of USP1/UAF1: Primary Screen; conditions: recombinant USP1/UAF1, Ub-Rhodamine cleavage fluorescence; activity change, negative = inhibition: at 57.1 µM (top of the series); note: nearly all actives have a fitted effect of over 60% in size
How it was run: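 Step one: compound is pinned into 1nM USP1/UAF1 in HEPES pH 7.8 buffer with TCEP. Step two: 15 min room-temperature incubation. Step three: Ub-Rho (150nM final) starts cleavage, tracked by fluorescence over six one-minute reads.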
% is set by controls: 0 for no effect and ±100 for the full control effect; potency is the fitted concentration of half-maximal effect.

Potency, active:
CN(C)/C=C1\C=C2C(=O)c3ccccc3N2C1=O 4.47 µM

Potency, inconclusive:
COc1ccc(S(=O)(=O)NCCSc2nnnn2-c2ccccc2)cc1OC 50.1 µM [inhibitor, partial curve, poor fit]
O=C(NCc1cccc(F)c1)c1ccc2nc(N3CCOCC3)sc2c1 0.708 µM [inhibitor, full curve, poor fit]
CC(C)(C)C(=O)N1CCc2cc(-c3csc(N)n3)ccc21 44.7 µM [inhibitor, partial curve]
CCOC(=O)N1CCN(C(=O)c2cc3c(s2)-c2ccccc2OC3)CC1 44.7 µM [inhibitor, partial curve, poor fit]
O=C(Nc1cccc(-c2nc3ncccc3o2)c1)c1sc2ccccc2c1Cl 3.16 µM [inhibitor, single point]
CCc1cccc(CC)c1NC(=O)Cn1c(=O)c(-c2cc(C)ccc2NC(C)=O)nc2ccccc21 5.62 µM [inhibitor, partial curve]
CCOc1ccccc1NC(=O)C1CCN(S(=O)(=O)c2cc(Br)cc3c2N(C(C)=O)CC3)CC1 3.98 µM [inhibitor, partial curve]
C=C(C)C(COc1c2occc2cc2ccc(=O)oc12)OC(C)(C)C(O)COc1c2occc2cc2ccc(=O)oc12 (stereo not drawn) 14.1 µM [inhibitor, partial curve, poor fit]
CCOc1ccccc1NC(=O)c1ccc2nc[nH]c2c1 7.94 µM [inhibitor, partial curve, poor fit]
COc1ccc(N/N=C(/C)c2cnnc(-c3ccccc3)n2)cc1 0.891 µM [inhibitor, full curve]
COc1cc(C(=O)COC(=O)c2ccc3c(c2)OCCO3)cc(OC)c1OC 0.141 µM [inhibitor, full curve, poor fit]
O=C(CSc1nnc(-c2ccncc2)n1-c1ccccc1)Nc1ccc(Cl)c(Cl)c1 100 µM [inhibitor, partial curve]
Cc1cccc(C)c1C(=O)N[C@@H](Cc1ccccc1)C(=O)O 56.2 µM [inhibitor, partial curve, poor fit]
CC(Oc1ccccc1)C(=O)Nc1ccc(OCc2cc(=O)n3ccsc3n2)cc1 (stereo not drawn) 39.8 µM [inhibitor, partial curve]
Cc1ccccc1CNC(=O)c1cccc(NC(=O)N2CCSc3ncccc32)c1 5.62 µM [inhibitor, full curve, poor fit]
Cc1ccc(Cl)cc1NC(=O)C1CCCN(S(=O)(=O)c2cccc3cccnc23)C1 (stereo not drawn) 56.2 µM [inhibitor, partial curve, poor fit]
COc1ccc(-c2nc3cc(C)ccn3c2NC(=O)c2ccc(F)cc2)cc1 0.398 µM [inhibitor, full curve, poor fit]
CCOc1ccc(CC(=O)Nc2c(C(=O)Nc3ccc(OC)cc3OC)oc3ccccc23)cc1 3.55 µM [inhibitor, full curve, poor fit]
CC(C)c1ccc(S(=O)(=O)N2CCN(C(=O)c3cc([N+](=O)[O-])ccc3N3CCOCC3)CC2)cc1 89.1 µM [inhibitor, partial curve, poor fit]
CC(C)C1COC(c2cccc3ccccc23)=N1 (stereo not drawn) 0.251 µM [inhibitor, full curve, poor fit]
O=C1NC(=O)C(Cc2c[nH]c3ccccc23)N1 (stereo not drawn) 50.1 µM [inhibitor, partial curve, poor fit]
COc1ccc(C2CC(c3ccccc3)=NN2C(=O)COC(=O)c2cccc(O)c2)cc1 (stereo not drawn) 0.355 µM [inhibitor, full curve, poor fit]
Cn1ncc(Br)c1C(=O)N1CCCC1 39.8 µM [inhibitor, single point]
CCOC(=O)c1nn(-c2ccccc2C)c(=O)c2c(N)scc12 5.62 µM [inhibitor, partial curve]
CC1CN(S(=O)(=O)c2ccccc2)CC(C)O1 (stereo not drawn) 31.6 µM [inhibitor, partial curve]
O=C(CCCl)Nc1ccc(S(=O)(=O)NCc2ccco2)cc1 0.282 µM [inhibitor, full curve, poor fit]
Cc1c(C(=O)Nc2ccccc2Br)oc2ccc(S(=O)(=O)N3CCCCC3)cc12 5.62 µM [inhibitor, single point]
O=S(=O)(c1ccccc1)N1CCN(c2ncnc3scc(-c4ccccc4)c23)CC1 35.5 µM [inhibitor, single point]
Cn1c(SCC(=O)c2ccc(-c3ccccc3)cc2)nnc1-c1ccco1 50.1 µM [inhibitor, partial curve, poor fit]
Cc1ccc(Cl)cc1NC(=O)Cn1c(=O)c(CNc2ccccc2)cc2cc3c(cc21)OCCO3 31.6 µM [inhibitor, partial curve]
CCC(=O)N1CCc2cc(Br)c(S(=O)(=O)CCC(=O)NCCOC)cc21 14.1 µM [inhibitor, partial curve]
CSc1ncc(Cl)c(C(=O)N(Cc2ccccc2Cl)C2CCS(=O)(=O)C2)n1 (stereo not drawn) 63.1 µM [inhibitor, partial curve]
O=C1CCCC(O)=C1N=Nc1ccc2c(c1)OCO2 0.631 µM [inhibitor, full curve, poor fit]
Cc1ccc2nc(NC(=O)c3cc(=O)c4cc(C)c(C)cc4o3)sc2c1 8.91 µM [inhibitor, single point]
CCCCC(CC)C(=O)Nc1cc(C(=O)NCc2ccc(C)cc2)ccc1N1CCC2(CC1)CC(c1ccccc1)=NO2 (stereo not drawn) 50.1 µM [inhibitor, partial curve, poor fit]
O=C(/C=C/c1cn(CC(O)CN2CCCCCC2)c2ccccc12)c1ccccc1 (stereo not drawn) 50.1 µM [inhibitor, partial curve, poor fit]
C=CCNC(=O)C(C#N)c1nc2ccccc2nc1N1CCN(Cc2ccccc2)CC1 (stereo not drawn) 6.31 µM [inhibitor, partial curve, poor fit]
COc1ccccc1N1C(=O)CC(Nc2ccc(N3CCOCC3)cc2)C1=O (stereo not drawn) 2.82 µM [inhibitor, full curve, poor fit]
COc1ccc(CN(C)C(=O)c2cc(-c3ccc(C)cc3C)nc3ccccc23)c(OC)c1OC 39.8 µM [inhibitor, partial curve, poor fit]
CC(C)C(OC(=O)c1ccco1)C(=O)NC1CCCC1 (stereo not drawn) 35.5 µM [inhibitor, partial curve]
CCCCCn1c(N2CCC(Cc3ccccc3)CC2)nc2c1c(=O)[nH]c(=O)n2C 0.794 µM [inhibitor, full curve]
Cc1cc(C=O)c(C)n1-c1ccc(N2CCCC2)c([N+](=O)[O-])c1 1.41 µM [inhibitor, full curve, poor fit]
CC1(C)O[C@@H](CC(=O)O)[C@]23CO[C@H](C(=O)[C@]4(C)C2CC[C@@]2(C)[C@H](c5ccoc5)OC(=O)C5O[C@]524)[C@@H]13 (stereo partly drawn) 79.4 µM [inhibitor, partial curve, poor fit]
CCOC(=O)c1c(NC(=O)c2noc3c2CC(C(C)(C)C)CC3)sc2c1CCCC2 (stereo not drawn) 31.6 µM [inhibitor, partial curve]
CC(=O)c1sc2c(c1C)c(=O)n(-c1ccc(Cl)cc1)c(=O)n2Cc1ccc(Cl)cc1 14.1 µM [inhibitor, partial curve]

4 compounds drawn at random from those above:
Potency, inconclusive:
CCOc1ccccc1NC(=O)c1ccc2nc[nH]c2c1 7.94 µM [inhibitor, partial curve, poor fit]
CCc1cccc(CC)c1NC(=O)Cn1c(=O)c(-c2cc(C)ccc2NC(C)=O)nc2ccccc21 5.62 µM [inhibitor, partial curve]
O=C1NC(=O)C(Cc2c[nH]c3ccccc23)N1 (stereo not drawn) 50.1 µM [inhibitor, partial curve, poor fit]
CC1CN(S(=O)(=O)c2ccccc2)CC(C)O1 (stereo not drawn) 31.6 µM [inhibitor, partial curve]

Next part.

Activity change, negative = inhibition, inactive:
O=P(O)(O)c1ccccc1OCCOCCOCCOCCOc1ccccc1P(=O)(O)O -4.64%
CN(C)c1ccc(C=NN2C(=O)CSC2=S)c(Cl)c1 -12%
CC(OC(=O)CCc1c[nH]c2ccccc12)C(=O)c1ccccc1 (stereo not drawn) -21.5%
COc1cc(/C=N\Nc2ccc([N+](=O)[O-])cc2)ccc1OCC(=O)Nc1ccc(C)c(C)c1 -7.75%
Cc1ccc(-c2nnc(SCC(=O)c3ccc(Cl)cc3)n2-c2ccccc2)cc1 -15.8%
CCC(C)Oc1ccc(C(=O)Nc2ccc(CN3CCOCC3)cc2)cc1 (stereo not drawn) -6.7%
O=C(CC1Nc2cccc3cccc(c23)NC1=O)Nc1ccccc1 (stereo not drawn) -25.2%
NC1=NC[C@H](Cc2ccccc2)N1CCCCC1CCCCC1 -10.6%
O=C1SC(Cc2ccccc2)C(=O)N1c1ccccc1 (stereo not drawn) 8.73%
O=c1cc2c(=O)oc3cc(O)c(O)oc3c2c(O)c1O -19.6%
Cc1cnc(NC(=O)CN2CCN(c3ccccn3)CC2)s1 -13.7%
Cc1ccc(S(=O)(=O)N(CCCO)CC(O)CON=C2c3ccccc3-c3ccccc32)cc1 (stereo not drawn) -21%
COc1cccc(NC(=O)Cn2c(=O)n(-c3ccc(CC(=O)NCC4CCCO4)cc3)c(=O)c3ccccc32)c1 (stereo not drawn) -16%
CCCN1C(=O)C(NC(=O)c2ccccc2OC)(C(F)(F)F)C(C(=O)OC)=C1C (stereo not drawn) -5.85%
COc1cc(/C=C/c2nc(C#N)c(NC3CCCCC3)o2)cc(OC)c1OC -23.1%
CCOC(=O)c1ccccc1NC(=O)CN(c1ccccc1OC)S(=O)(=O)c1ccc(C)cc1 -12.5%
COc1ccc(-c2cc(C(F)(F)F)nc(SCC(=O)N3CCOCC3)n2)cc1OC -16.2%
